Test: Corrosion inhibition in brine, bubble test (LPR), inhibitor dosed to a model oil phase
Conditions: 90% Forties synthetic brine/10% kerosene, CO2 saturated, 55° C.

## C12-C16 Cocoalkyl di-methyl benzyl quaternary amine
10 ppm active inhibitor dosed into kerosene phase
  % Protection: −1.1%
25 ppm active inhibitor dosed into kerosene phase
  % Protection: 8.2%
50 ppm active inhibitor dosed into kerosene phase
  % Protection: 3.9%

Source: patent publication US8940227B2, “Use of polyester polyamine and polyester polyquaternary ammonium compounds as corrosion inhibitors” (Akzo Nobel Chemical International B.V., priority 2010, dated 2015)
